The experiment deals with T1, HP1c (Drosophila (endogenous in embryos)) (UniProt Q9VCU6).
T1 sequence: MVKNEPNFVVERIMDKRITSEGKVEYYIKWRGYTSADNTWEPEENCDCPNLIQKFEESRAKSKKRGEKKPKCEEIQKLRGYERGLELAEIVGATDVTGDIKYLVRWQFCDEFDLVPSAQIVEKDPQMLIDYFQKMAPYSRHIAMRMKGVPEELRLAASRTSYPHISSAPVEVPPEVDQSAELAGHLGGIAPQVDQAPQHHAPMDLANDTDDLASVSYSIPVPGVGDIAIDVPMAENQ
The experiment is described as follows: co-IP; 30 µl nuclear extract of early Drosophila embryos (0–12 h, TRAX) with α-HP1c (2G2), α-Woc or buffer overnight at 4°C in BC200; protein A/G sepharose; washed with BC300; western blotting. (In general: In western blotting, separated proteins are transferred to a membrane and probed.)

These are yes or no findings as the source states them, for the method shown. In cells and extracts the contact can be indirect. A result given as binding can be weak or reduced; the word gives no strength.

For “Woc (Drosophila (endogenous in embryos))”, the binding entry is listed as “binds”.

The values above are taken from article PMC2662408.
